Reference: paper PMC7819943, “Rice protein-binding microarrays: a tool to detect cis-acting elements near promoter regions in rice”
This is one part of the list.

Each sequence was assayed against T1, OsSMF1 (Oryza sativa, UniProt Q6ZLB0 1-436) (assay: protein-binding microarray (RPBM); PBS, 2% BSA, 51.3 ng/ul salmon testes DNA, 50 uM zinc acetate, 200 nM TF, 25 C, 1 h; high values mean tight binding). Conditions: protein: recombinant; tags: N-terminal polyhistidine and DsRed monomer fusion (pET32a); chain copies: 2; label: CyDye5-dUTP incorporated in the synthesized complementary strand; 3' TTTTT single-stranded linker to array surface; dsDNA, one strand shown.
T1 sequence: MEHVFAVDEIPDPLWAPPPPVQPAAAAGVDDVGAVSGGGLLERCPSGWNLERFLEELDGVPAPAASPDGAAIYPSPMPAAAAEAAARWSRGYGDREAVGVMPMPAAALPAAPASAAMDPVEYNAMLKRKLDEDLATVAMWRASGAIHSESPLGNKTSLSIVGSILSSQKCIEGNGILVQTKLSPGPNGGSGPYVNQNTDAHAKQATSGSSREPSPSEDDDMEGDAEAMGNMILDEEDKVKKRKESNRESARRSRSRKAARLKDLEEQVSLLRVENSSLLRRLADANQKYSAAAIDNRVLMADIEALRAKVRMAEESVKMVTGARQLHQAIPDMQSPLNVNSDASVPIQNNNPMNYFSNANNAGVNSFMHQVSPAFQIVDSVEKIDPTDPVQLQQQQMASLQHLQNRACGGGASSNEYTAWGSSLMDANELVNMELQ
How it was run: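 The binding signal for each feature is its fluorescence intensity in arbitrary units. An Axon 4000B scanner was used to read a custom Agilent array that had been made double-stranded with Cy5-dUTP primer extension, blocked with 2% BSA, incubated at 25 °C for 1 h with 200 nM protein in PBS, 2% BSA, salmon testes DNA and 50 µM zinc acetate, and washed. The protein was an N-terminal polyhistidine–DsRed transcription factor fusion from E. coli BL21-CodonPlus, purified on Ni–NTA.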
For “ACGAATCCAACGCCCTTTGTCATCCACCTCGTGTCGCTCGCGGAGTCACCTAGTGCAG”, the binding signal was 3690 fluorescence intensity (a.u.).
With “AGTCATGAGGAGCCCAACTCAGCCCACGTACACCACCTCCCGGAGTCACCTAGTGCAG” the binding signal was 5200 fluorescence intensity (a.u.).
“TCTATCTTTGACTTGGAAGACAGCTCACTAATACTACCTTCGGAGTCACCTAGTGCAG” was tested, and the binding signal was 3310 fluorescence intensity (a.u.).
In the case of “TTCCAGTCCACCGTGGCGGTGGCGCGTCAGCTTTCCAGCCCGGAGTCACCTAGTGCAG”, the binding signal is reported as 12000 fluorescence intensity (a.u.).
“CCCACCCACCCACCCACCACCACGCCACGCCACCACCTCGCGGAGTCACCTAGTGCAG” was tested, and the binding signal was 7850 fluorescence intensity (a.u.).
“TATCTACTAAGTCTTGACAGCCAAAGTCATGGTTTGGCGACGGAGTCACCTAGTGCAG” was tested, and the binding signal was 3920 fluorescence intensity (a.u.).
For “GTAAGTGACTAAGTGCCACGTTGGTTTGTTGCTGAGCCAACGGAGTCACCTAGTGCAG”, the binding signal was 15700 fluorescence intensity (a.u.).
In the case of “AAGCTATAGAGATCTACATCAATACAATATTATGTGTGTGCGGAGTCACCTAGTGCAG”, the binding signal is reported as 4040 fluorescence intensity (a.u.).
In the case of “CGTCGTCTTCAGCAGCAGCGGCGTCAGCATGCGTCGTCTTCGGAGTCACCTAGTGCAG”, the binding signal is reported as 5630 fluorescence intensity (a.u.).
“CACCCACCGAGCATCTGTTTGAACCTAGAAATATTGTCTGCGGAGTCACCTAGTGCAG” was tested, and the binding signal was 3640 fluorescence intensity (a.u.).
With “ATTTCATACCAACCGCAACCACGCCACGCCACGCCTCGACCGGAGTCACCTAGTGCAG” the binding signal was 5990 fluorescence intensity (a.u.).
In the case of “AACATGAGTCAAAGCTACTCCATCTTCATGTCCCAATCCCCGGAGTCACCTAGTGCAG”, the binding signal is reported as 3250 fluorescence intensity (a.u.).
“CGGATCCAACGTGGGTGCATTATTAGGTCATGTTAGTGTCCGGAGTCACCTAGTGCAG” was tested, and the binding signal was 5720 fluorescence intensity (a.u.).
With “GACTTTCTCATATTTAACACGTGACTCTCTATTCTTCCACCGGAGTCACCTAGTGCAG” the binding signal was 3720 fluorescence intensity (a.u.).
“TTAATTAATTAACGTATGTACTCAGGAATTATATATAATACGGAGTCACCTAGTGCAG” was tested, and the binding signal was 35600 fluorescence intensity (a.u.).
In the case of “GCTAACAAGTTGAGGGACCTTGCGTGTACTTTTCCCGCGCCGGAGTCACCTAGTGCAG”, the binding signal is reported as 5430 fluorescence intensity (a.u.).
For “CAATAAAGCGATCCTTAATTCCACCGTGTCAACTGGTTTACGGAGTCACCTAGTGCAG”, the binding signal was 4830 fluorescence intensity (a.u.).
In the case of “AGGATGTTGAGAGGTTCGTGGCACGTTGCACCACTTGTCACGGAGTCACCTAGTGCAG”, the binding signal is reported as 4640 fluorescence intensity (a.u.).
For “TTATCAATCGCGCAATTTGCAAATACGTCATCCTTTCAAGCGGAGTCACCTAGTGCAG”, the binding signal was 4570 fluorescence intensity (a.u.).
With “GAGTTCATATCTGACTCTACCTTTGTACACGTCCTAAGCTCGGAGTCACCTAGTGCAG” the binding signal was 4920 fluorescence intensity (a.u.).
With “ATTCCTGTCACCTTCGACCGACAGCCCCATCATCATTATCCGGAGTCACCTAGTGCAG” the binding signal was 4410 fluorescence intensity (a.u.).
“ATACAGGTCCACGCCTCCACGTGACAGGTGCTCGAAGAAGCGGAGTCACCTAGTGCAG” was tested, and the binding signal was 3150 fluorescence intensity (a.u.).
With “GCTGGCCGCTGCGGTTTGACCTAGCTGACGTCGCCGCCGCCGGAGTCACCTAGTGCAG” the binding signal was 6370 fluorescence intensity (a.u.).
“ACTCGTGACATGAATGGATGCATTCTGTCTGAGACAAGAACGGAGTCACCTAGTGCAG” was tested, and the binding signal was 3360 fluorescence intensity (a.u.).
In the case of “GTGCGCGTGGTAAGGCCTGGGACGTGGGCCAAAGCACCCCCGGAGTCACCTAGTGCAG”, the binding signal is reported as 4020 fluorescence intensity (a.u.).
“GAGTTGTGACTGTGAGGCACACCAATGGCGGCCCATGGATCGGAGTCACCTAGTGCAG” was tested, and the binding signal was 3740 fluorescence intensity (a.u.).
In the case of “GTCCAACGGCATCTGCTCTCACTGACTCACTCATCTCTAGCGGAGTCACCTAGTGCAG”, the binding signal is reported as 6220 fluorescence intensity (a.u.).
In the case of “CCCATCCCAATCACATGGACCACGGCCCGCCACGTAAGCACGGAGTCACCTAGTGCAG”, the binding signal is reported as 17400 fluorescence intensity (a.u.).
In the case of “TATCCTTCCCCTGGTTATCCTTCGACTGTGGTTATCCGGGCGGAGTCACCTAGTGCAG”, the binding signal is reported as 10600 fluorescence intensity (a.u.).
“TATATGCCCGTATATACACTCCGCTAACATATGGCATTGACGGAGTCACCTAGTGCAG” was tested, and the binding signal was 3840 fluorescence intensity (a.u.).
For “GGCCTTAGATGAGTCATCCTACTTGTGGCATATATATACCCGGAGTCACCTAGTGCAG”, the binding signal was 8130 fluorescence intensity (a.u.).
“GCGTCGTCGTCGCCTGCACCGCGGAGGCCGCGCGCGAGGTCGGAGTCACCTAGTGCAG” was tested, and the binding signal was 13700 fluorescence intensity (a.u.).
With “CCGAGTCAATACTGCCACGTAGCGCGCCACGTCAGCGAAACGGAGTCACCTAGTGCAG” the binding signal was 26300 fluorescence intensity (a.u.).
For “ACCACGAACCTGTTTTGCATTTGACAAATGCCACACACTCCGGAGTCACCTAGTGCAG”, the binding signal was 3180 fluorescence intensity (a.u.).
For “GCCGGCCGACGGGTGGGGAGGAGACCGACGGGGCGAGACACGGAGTCACCTAGTGCAG”, the binding signal was 20700 fluorescence intensity (a.u.).
With “GGATACGTGCCATGTCACGGTGCTGTGGGTCCCACGTGGCCGGAGTCACCTAGTGCAG” the binding signal was 21800 fluorescence intensity (a.u.).
In the case of “CCCCTCGCCGGTCTGTTTGTGGGCTCTATCTAGCTCGGGGCGGAGTCACCTAGTGCAG”, the binding signal is reported as 3690 fluorescence intensity (a.u.).
In the case of “ATTTGCTCTCGTCCATGGGTTAATTTCTGGATTATCACGACGGAGTCACCTAGTGCAG”, the binding signal is reported as 3300 fluorescence intensity (a.u.).
“CGAATAACCCGGAACTGCCTACCGACAGCAGCGGGCAGTGCGGAGTCACCTAGTGCAG” was tested, and the binding signal was 4360 fluorescence intensity (a.u.).
With “CGAGCTTGGGGTCGTGGTCATTGCTACCGTGGATGGCGAGCGGAGTCACCTAGTGCAG” the binding signal was 5180 fluorescence intensity (a.u.).
For “CTGTTGCGCGGTCACAGCTCACACGTCGGCGGCTTCGCTACGGAGTCACCTAGTGCAG”, the binding signal was 6240 fluorescence intensity (a.u.).
With “CTAGAAATGAGATTGCACTCATACCACGACACACGCACACCGGAGTCACCTAGTGCAG” the binding signal was 4120 fluorescence intensity (a.u.).
